Measurements reported in PubChem BioAssay AID1671195 (Yale University, 2021).
Assay: 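Knockdowns that increase or decrease uptake of fluorescent LDL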 (primary screen). Cells: human Huh7 hepatoma cells. Reagent: siRNA pool against human genes, 18 nM. Timing: about 2 to 2.5 days of knockdown, then 8 h LDL uptake. Treatment: DiI-labelled LDL at 30 µg/ml for 8 h, in lipoprotein-deficient serum medium. Read-out: 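Per-cell DiI-LDL intensity by automated imaging; well means scaled to the plate median and given as a robust z-score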. Reading the numbers: robust z-score: higher = more LDL uptake after knockdown. Active means: 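Active when two or more replicates show a robust z-score above 2 or below -2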.
This is a random part of about 22,000 deposited reagents. About 1,510 of them (6.9%) were called active. 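Active includes knockdowns raising or lowering LDL uptake; positive z-scores mean more uptake, negative mean less.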 Unmarked entries are inactive.

gene knocked down	robust z-score, replicate 1	robust z-score, replicate 2	robust z-score, replicate 3
PRND	-1.22	0.439	0.859
WDR4	-0.815	-1.31	-1.64
SNRPA	0.653	0.304	-0.0835
COX7A1	0.47	0.43	0.111
EDN2	-0.726	0.667	-0.137
PHKA1	-0.424	-0.43	0.213
SP100	-1.76	-2.01	-1.89
MEIOB	-1.9	-1.71	-1.83
FEZF2	-1.77	-1.97	-1.18
SF3B3	-1.84	-1.54	-1.41
CYP2U1	-1.46	-1.25	-1.12
ATP1B2	-0.0346	-0.0982	-0.674
TSPYL2	0.161	0.121	-0.0156
ATP10D	-0.291	-0.731	-0.735
LOC286297	0.633	-0.177	0.265
SOX1	-0.131	-0.15	-0.306
CAVIN2	-0.102	-0.559	-0.813
PCDHA1	-0.345	0.429	-0.736
TOP1MT	-0.728	-0.132	-0.239
TP53BP1	-0.0349	1.02	0.548
OR8U3	-0.783	-0.493	-0.438
CELF6	0.566	-0.284	-0.265
LOC441174 (retired record)	2.91	0.733	0.927
NDUFAF7	-0.0857	0.482	0.261
TMPO	0.934 (active)	2.75	2.64
CYP19A1	-0.275	-0.0963	-0.0675
LOC441460 (retired record)	-0.73	-0.739	-0.726
NUDCD1	-0.0831	-0.0608	-0.354
GOPC	0.326	1.63	1.4
RASGRP1	1.09	1.29	1.15
LRRFIP2	-1.12	-0.625	-0.756
MTRR	-0.426	-0.768	-0.927
SHC1	-2.14 (active)	-2.06	-2.02
COMMD6	0.232	-0.214	0.257
ZNF491	-0.464	-0.917	-0.618
PCNX1	-0.733	1.11	-1.32
OGFOD2	-0.391	-0.527	-0.0824
EPGN	3.93 (active)	3.75	3.44
LOC388628 (retired record)	1.52	1.14	1.94
TENT5D	-0.0895	-0.0571	0.143
GSTM4	-0.293	0.454	-1.03
IFI30	2.86 (active)	2.34	2.35
DHTKD1	-1.74	-1.89	-2.1
ALOXE3	-0.442	0.00345	-0.876
SH2D1B	-0.0719	-0.209	0.22
THTPA	-0.521	-0.522	-0.33

5 of these entries, reformatted.
gene knocked down,"robust z-score, replicate 1","robust z-score, replicate 2","robust z-score, replicate 3"
CAVIN2,-0.102,-0.559,-0.813
PCDHA1,-0.345,0.429,-0.736
TOP1MT,-0.728,-0.132,-0.239
TP53BP1,-0.0349,1.02,0.548
OR8U3,-0.783,-0.493,-0.438
